Source: the supplement of paper PMC12823440, “Inhibitors supercharge kinase turnover through native proteolytic circuits” (Nature, 2025)
The other results are listed elsewhere or left out. Hit calls seldom repeat between salt and free forms of one compound.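 Kinases, fused to nanoluciferase, were expressed in K562 cells; luminescence was measured every 4 h from 2 to 18 h as percent of control (DMSO = 100%, positive control = 0%). A time point is decreased if signal falls significantly (2 sigma). Hits were called by the authors by a rule that is not shown; the count of time points alone does not decide it.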

The chains behind the UniProt entries cited, without tags or fusion partners. Where a name states a change or a piece, a line headed by the entry shows the natural chain unless it says otherwise.
UniProt P29317, whole entry: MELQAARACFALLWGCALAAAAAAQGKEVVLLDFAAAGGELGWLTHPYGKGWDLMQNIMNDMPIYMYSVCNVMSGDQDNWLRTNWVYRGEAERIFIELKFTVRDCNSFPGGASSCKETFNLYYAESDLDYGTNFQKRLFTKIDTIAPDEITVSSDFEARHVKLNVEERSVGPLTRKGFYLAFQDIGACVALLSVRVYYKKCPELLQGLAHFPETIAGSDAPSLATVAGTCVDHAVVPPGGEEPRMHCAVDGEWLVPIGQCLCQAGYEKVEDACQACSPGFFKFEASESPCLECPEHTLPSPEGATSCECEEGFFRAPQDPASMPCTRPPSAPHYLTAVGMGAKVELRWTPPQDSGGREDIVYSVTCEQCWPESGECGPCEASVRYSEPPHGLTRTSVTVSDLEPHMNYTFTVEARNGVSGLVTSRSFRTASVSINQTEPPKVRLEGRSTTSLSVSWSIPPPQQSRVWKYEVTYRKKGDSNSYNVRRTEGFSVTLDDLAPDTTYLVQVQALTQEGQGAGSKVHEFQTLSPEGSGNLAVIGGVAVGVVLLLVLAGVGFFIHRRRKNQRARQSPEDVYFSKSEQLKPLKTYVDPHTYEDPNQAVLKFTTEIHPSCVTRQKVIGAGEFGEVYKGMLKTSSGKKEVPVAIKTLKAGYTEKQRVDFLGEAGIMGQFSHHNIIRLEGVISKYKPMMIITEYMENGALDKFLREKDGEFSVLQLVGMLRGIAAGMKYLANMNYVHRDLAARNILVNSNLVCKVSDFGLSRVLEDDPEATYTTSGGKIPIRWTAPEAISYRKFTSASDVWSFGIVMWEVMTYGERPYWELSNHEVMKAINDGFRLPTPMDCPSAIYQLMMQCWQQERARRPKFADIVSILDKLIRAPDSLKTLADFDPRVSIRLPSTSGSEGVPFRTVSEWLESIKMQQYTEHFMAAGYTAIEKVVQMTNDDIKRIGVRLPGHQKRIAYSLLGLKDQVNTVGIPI
UniProt P21860, whole entry: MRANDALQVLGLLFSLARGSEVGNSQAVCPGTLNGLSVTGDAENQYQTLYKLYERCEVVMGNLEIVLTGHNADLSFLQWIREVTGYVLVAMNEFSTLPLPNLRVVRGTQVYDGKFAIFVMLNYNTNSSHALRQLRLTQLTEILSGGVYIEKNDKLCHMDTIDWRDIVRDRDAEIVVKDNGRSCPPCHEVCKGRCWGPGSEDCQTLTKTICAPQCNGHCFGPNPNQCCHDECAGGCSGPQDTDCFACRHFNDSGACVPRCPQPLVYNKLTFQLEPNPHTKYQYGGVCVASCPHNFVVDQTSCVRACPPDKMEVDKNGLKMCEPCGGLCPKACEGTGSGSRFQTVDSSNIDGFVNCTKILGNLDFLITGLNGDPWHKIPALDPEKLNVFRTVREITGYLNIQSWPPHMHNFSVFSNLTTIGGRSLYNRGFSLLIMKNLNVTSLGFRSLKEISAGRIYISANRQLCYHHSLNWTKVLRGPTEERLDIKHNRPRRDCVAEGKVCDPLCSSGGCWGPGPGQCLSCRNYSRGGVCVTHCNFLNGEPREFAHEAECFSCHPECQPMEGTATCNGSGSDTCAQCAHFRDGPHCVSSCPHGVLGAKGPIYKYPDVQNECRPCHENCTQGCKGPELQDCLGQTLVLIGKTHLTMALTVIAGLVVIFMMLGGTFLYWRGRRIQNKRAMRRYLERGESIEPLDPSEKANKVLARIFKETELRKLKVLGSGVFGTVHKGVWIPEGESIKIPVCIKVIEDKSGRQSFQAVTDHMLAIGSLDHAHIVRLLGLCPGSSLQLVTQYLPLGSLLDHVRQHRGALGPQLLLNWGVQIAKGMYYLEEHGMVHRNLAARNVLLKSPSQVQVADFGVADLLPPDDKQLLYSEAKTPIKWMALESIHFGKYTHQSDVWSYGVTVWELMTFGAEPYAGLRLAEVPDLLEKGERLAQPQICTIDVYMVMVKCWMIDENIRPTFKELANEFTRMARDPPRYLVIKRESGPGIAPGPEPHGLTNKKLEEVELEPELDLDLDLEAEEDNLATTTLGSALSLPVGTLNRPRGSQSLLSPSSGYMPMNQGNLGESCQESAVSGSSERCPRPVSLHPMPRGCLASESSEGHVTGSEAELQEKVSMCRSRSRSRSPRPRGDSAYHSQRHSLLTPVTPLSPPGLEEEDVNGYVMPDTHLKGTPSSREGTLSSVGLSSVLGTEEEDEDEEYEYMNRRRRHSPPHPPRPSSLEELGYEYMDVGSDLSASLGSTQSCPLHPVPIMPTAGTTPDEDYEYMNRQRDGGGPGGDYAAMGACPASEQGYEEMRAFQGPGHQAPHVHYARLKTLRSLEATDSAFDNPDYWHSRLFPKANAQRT
UniProt O75460: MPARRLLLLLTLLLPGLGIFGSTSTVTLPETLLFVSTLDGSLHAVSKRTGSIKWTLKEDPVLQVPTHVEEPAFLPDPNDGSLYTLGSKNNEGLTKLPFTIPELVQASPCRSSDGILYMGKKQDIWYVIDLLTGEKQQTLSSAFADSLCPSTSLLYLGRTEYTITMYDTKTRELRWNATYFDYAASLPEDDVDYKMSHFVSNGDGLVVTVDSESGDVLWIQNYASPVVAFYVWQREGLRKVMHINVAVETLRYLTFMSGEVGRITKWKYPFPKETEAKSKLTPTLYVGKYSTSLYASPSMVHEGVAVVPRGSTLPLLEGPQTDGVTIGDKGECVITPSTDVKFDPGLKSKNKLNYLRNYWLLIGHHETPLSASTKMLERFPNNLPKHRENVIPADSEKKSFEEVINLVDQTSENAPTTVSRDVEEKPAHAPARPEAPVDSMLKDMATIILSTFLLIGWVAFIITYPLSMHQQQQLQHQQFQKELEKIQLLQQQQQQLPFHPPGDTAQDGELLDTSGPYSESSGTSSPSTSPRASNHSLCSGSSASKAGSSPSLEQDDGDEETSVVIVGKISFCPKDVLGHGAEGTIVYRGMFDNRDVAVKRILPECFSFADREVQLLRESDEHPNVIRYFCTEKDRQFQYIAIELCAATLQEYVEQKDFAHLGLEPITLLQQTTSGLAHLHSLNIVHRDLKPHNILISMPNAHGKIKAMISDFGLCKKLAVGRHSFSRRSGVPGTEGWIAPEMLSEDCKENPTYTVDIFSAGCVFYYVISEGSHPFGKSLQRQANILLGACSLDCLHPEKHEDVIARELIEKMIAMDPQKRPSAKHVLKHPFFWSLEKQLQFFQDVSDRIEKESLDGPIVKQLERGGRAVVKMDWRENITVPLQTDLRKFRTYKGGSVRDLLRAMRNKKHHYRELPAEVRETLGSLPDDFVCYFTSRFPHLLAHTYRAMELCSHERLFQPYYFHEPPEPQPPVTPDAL
UniProt P21802, whole entry, looked up: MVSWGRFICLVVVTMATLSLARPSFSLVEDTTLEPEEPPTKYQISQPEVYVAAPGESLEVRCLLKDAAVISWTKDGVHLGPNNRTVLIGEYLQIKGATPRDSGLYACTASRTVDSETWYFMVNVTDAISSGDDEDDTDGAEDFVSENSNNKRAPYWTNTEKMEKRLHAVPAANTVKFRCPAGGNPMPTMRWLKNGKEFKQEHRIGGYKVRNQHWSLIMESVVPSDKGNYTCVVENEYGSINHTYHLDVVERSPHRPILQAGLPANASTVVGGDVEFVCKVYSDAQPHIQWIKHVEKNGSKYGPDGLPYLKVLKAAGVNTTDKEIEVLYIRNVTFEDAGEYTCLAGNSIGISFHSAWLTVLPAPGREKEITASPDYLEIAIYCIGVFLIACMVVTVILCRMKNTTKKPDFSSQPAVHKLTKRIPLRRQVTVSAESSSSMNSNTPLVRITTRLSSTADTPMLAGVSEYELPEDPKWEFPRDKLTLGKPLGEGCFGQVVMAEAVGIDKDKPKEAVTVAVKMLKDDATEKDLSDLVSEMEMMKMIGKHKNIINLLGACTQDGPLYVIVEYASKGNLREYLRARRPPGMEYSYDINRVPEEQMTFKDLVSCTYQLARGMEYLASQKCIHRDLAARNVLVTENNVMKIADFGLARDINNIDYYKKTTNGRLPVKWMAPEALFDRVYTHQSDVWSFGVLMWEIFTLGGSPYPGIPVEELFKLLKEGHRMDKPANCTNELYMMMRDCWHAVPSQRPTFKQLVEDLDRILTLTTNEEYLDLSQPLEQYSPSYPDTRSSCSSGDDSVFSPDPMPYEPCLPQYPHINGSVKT
UniProt P06241, whole entry, looked up: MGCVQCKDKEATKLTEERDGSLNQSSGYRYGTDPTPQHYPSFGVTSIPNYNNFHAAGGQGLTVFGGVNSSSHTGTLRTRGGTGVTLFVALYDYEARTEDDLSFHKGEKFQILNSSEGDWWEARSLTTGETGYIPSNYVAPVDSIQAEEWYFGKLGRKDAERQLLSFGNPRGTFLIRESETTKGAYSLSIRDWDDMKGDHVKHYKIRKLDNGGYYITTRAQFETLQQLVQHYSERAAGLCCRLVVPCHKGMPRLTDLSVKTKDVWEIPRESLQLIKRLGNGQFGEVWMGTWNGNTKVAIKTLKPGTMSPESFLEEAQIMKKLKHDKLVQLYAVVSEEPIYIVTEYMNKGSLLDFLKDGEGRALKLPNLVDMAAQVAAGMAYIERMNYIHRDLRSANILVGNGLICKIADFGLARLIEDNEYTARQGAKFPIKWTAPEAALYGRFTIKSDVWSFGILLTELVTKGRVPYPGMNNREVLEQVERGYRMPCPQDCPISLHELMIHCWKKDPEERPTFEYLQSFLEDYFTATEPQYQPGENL
UniProt Q9Y616: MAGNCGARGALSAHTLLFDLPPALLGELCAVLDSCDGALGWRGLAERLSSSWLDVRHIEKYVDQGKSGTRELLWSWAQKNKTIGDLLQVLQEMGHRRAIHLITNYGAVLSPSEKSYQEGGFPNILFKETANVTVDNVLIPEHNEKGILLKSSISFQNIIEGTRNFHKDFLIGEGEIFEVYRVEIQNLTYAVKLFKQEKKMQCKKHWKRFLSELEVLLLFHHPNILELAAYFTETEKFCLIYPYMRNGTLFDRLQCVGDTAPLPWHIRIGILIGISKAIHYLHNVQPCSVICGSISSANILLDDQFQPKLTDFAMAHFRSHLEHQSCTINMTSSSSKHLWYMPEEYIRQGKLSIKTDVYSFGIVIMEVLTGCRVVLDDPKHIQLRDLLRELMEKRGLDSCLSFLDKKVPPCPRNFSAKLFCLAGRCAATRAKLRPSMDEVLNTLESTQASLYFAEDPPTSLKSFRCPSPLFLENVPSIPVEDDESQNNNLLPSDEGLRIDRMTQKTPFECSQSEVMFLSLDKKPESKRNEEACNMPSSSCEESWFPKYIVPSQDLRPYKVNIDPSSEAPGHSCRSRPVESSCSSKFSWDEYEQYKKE
UniProt P06239: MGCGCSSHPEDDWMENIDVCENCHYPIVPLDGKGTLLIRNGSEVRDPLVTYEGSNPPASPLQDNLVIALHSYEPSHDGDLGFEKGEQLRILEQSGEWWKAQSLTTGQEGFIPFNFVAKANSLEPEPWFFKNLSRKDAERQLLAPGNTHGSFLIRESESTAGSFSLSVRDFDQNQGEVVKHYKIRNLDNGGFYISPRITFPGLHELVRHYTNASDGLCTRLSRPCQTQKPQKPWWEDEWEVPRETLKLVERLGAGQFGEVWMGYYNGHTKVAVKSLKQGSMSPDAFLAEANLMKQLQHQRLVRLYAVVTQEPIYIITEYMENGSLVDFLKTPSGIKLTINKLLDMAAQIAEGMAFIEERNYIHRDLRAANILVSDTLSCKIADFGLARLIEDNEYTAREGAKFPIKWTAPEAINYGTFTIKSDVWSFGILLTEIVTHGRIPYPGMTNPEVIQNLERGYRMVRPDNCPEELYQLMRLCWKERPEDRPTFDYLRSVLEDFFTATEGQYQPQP
UniProt P53671: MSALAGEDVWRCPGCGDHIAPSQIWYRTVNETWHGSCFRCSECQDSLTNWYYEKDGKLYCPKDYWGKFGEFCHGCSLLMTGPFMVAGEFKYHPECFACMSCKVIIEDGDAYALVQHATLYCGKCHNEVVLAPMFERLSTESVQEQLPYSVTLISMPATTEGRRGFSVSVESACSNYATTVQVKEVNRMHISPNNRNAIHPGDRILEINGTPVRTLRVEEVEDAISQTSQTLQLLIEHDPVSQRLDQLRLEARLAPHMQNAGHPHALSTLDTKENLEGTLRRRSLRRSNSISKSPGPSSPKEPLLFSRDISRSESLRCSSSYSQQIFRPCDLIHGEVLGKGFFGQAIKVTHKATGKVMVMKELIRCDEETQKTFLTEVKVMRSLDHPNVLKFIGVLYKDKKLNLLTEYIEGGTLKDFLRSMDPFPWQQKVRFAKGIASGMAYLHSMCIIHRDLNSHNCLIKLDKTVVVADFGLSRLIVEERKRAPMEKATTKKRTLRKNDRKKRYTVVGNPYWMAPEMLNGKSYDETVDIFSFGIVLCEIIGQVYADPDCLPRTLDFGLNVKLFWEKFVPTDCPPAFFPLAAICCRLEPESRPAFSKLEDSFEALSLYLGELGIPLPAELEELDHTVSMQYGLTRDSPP

Experiments:
Experiment in all cases: number of time points (of 5) at which kinase-Nluc abundance scored as decreased, DMSO-normalised (count); higher = more persistent destabilization
Details in all cases: K562; 2-18 h
[1] = target: EGFR_L861Q (UniProt P00533)
[2] = target: EGFR_T790M (UniProt P00533)
[3] = target: EPHA2 (UniProt P29317)
[4] = target: ERBB3 (UniProt P21860)
[5] = target: ERBB4_R711C (clone: ERBB4_mut) (UniProt Q15303)
[6] = target: ERN1 (UniProt O75460)
[7] = target: FGFR1 (UniProt P11362)
[8] = target: FGFR2 (UniProt P21802)
[9] = target: FGFR3 (UniProt P22607)
[10] = target: FGR (UniProt P09769)
[11] = target: FLT3 (UniProt P36888)
[12] = target: FYN (UniProt P06241)
[13] = target: GSK3A (UniProt P49840)
[14] = target: HER2 (UniProt P04626)
[15] = target: INSRR (UniProt P14616)
[16] = target: IRAK3 (UniProt Q9Y616)
[17] = target: JAK1 (UniProt P23458)
[18] = target: LCK (UniProt P06239)
[19] = target: LIMK1 (UniProt P53667)
[20] = target: LIMK2 (UniProt P53671)

Row | Compound | number of time points [1] | number of time points [2] | number of time points [3] | number of time points [4] | number of time points [5] | number of time points [6] | number of time points [7] | number of time points [8] | number of time points [9] | number of time points [10] | number of time points [11] | number of time points [12] | number of time points [13] | number of time points [14] | number of time points [15] | number of time points [16] | number of time points [17] | number of time points [18] | number of time points [19] | number of time points [20]
1 | Nc1nc2c(nc(Br)n2[C@@H]2O[C@@H]3COP(=O)(O)O[C@H]3[C@H]2O)c(=O)[nH]1 [8-Bromo-cGMP (sodium)] (10 µM) | 0 | 0 | 0 | 0 | 0 | 0 | 0 | 0 | 0 | 0 | 0 | 0 | 0 | 0 | 0 | 0 | 0 | 0 | 0 | 0
2 | Oc1c(F)cc(-c2cnccc2-c2ccc(N3CCOCC3)cc2)cc1F (10 µM) | 0 | 0 | 0 | 0 | 0 | 0 | 0 | 0 | 0 | 0 | 0 | 0 | 0 | 0 | 0 | 0 | 0 | 0 | 0 | 0
3 | COc1cc(N2CCC(N3CCN(C)CC3)CC2)ccc1Nc1ncc(Cl)c(-c2c[nH]c3ccccc23)n1 (2.5 µM) | 0 | 0 | 0 | 0 | 0 | 0 | 0 | 0 | 0 | 0 | 0 | 0 | 0 | 0 | 0 | 0 | 0 | 0 | 0 | 0
4 | CN(C)c1ccc(-c2nc3ncc(Cl)c(N4CCN(CC(=O)Nc5nccs5)CC4)c3[nH]2)cc1 (2 µM) | 0 | 0 | 0 | 0 | 0 | 0 | 0 | 0 | 0 | 0 | 0 | 0 | 0 | 0 | 0 | 0 | 0 | 0 | 0 | 2
5 | COc1ccc(S(=O)(=O)Nc2cc(-c3c(O)ccc4ccccc34)c(O)c3ccccc23)cc1 (10 µM) | 0 | 0 | 0 | 1 | 0 | 0 | 0 | 0 | 0 | 0 | 0 | 0 | 0 | 0 | 0 | 0 | 0 | 0 | 0 | 0
6 | CCN(CC)CCOc1ccc(Nc2nc(-c3ccccc3NC(=O)CCN3CCN(C)CC3)nc3ccccc23)cc1 (2.5 µM) | 0 | 0 | 0 | 0 | 0 | 0 | 0 | 0 | 0 | 0 | 0 | 0 | 0 | 0 | 0 | 0 | 0 | 0 | 0 | 0
7 | COCCOCCc1c(C)c2cc(OC)c(O)c(C=O)c2oc1=O (10 µM) | 0 | 0 | 0 | 0 | 0 | 0 | 0 | 0 | 0 | 0 | 0 | 0 | 0 | 0 | 0 | 0 | 0 | 0 | 0 | 0
8 | COc1cc2nccc(Oc3ccc(NC(=O)c4cn(C(C)C)c(=O)n(-c5ccc(F)cc5)c4=O)cc3F)c2cc1OC (0.5 µM) | 0 | 0 | 2 | 0 | 0 | 0 | 2 | 2 | 0 | 0 | 0 | 1 | 0 | 1 | 2 | 0 | 0 | 0 | 0 | 0
9 | Cc1c(C)c(NCC(=O)N(C)C2CCN(Cc3ccc(C(N)=O)cc3)CC2)c(C)c(C)c1N (10 µM) | 0 | 0 | 0 | 0 | 0 | 0 | 0 | 0 | 0 | 0 | 0 | 0 | 0 | 0 | 0 | 0 | 0 | 0 | 0 | 0
10 | c1ccc(Cn2c(-c3ccc(OC[C@H](C4CCNCC4)n4c(-c5ccccc5)nc5ccccc54)cc3)nc3ccccc32)cc1 [Deltarasin] (2.5 µM) | 0 | 0 | 0 | 0 | 0 | 0 | 0 | 0 | 0 | 0 | 0 | 0 | 0 | 0 | 0 | 0 | 0 | 0 | 0 | 0
11 | O=C(O)c1ccc(/C=C/S(=O)(=O)Cc2ccc(Cl)cc2)cc1 [Recilisib] (10 µM) | 0 | 0 | 0 | 0 | 0 | 0 | 0 | 0 | 0 | 0 | 0 | 0 | 0 | 0 | 0 | 0 | 0 | 0 | 0 | 0
12 | CC(C)[C@H](CO)Nc1nc(Nc2cccc(Cl)c2)c2ncn(C(C)C)c2n1 [Purvalanol A] (10 µM) | 0 | 0 | 0 | 0 | 0 | 0 | 0 | 0 | 0 | 0 | 0 | 0 | 0 | 1 | 0 | 0 | 0 | 0 | 0 | 0
13 | COc1cc(-c2cc(OP(=O)(O)O)cc(-c3cc(OC)c(OC)c(OC)c3)c2)cc(OC)c1OC [Stafia-1] (10 µM) | 0 | 0 | 0 | 0 | 0 | 0 | 0 | 0 | 0 | 0 | 0 | 0 | 0 | 0 | 0 | 0 | 0 | 0 | 0 | 0
14 | O=C(Nc1ccc(Cl)cc1)C1CCCN(C(=O)c2cc(C(F)(F)F)cc(C(F)(F)F)c2)C1 (stereo not given) (10 µM) | 0 | 0 | 0 | 0 | 0 | 0 | 0 | 1 | 0 | 0 | 0 | 0 | 0 | 2 | 0 | 0 | 0 | 0 | 4 | 1
15 | Cc1cc(Nc2cc(N3CCN(C)CC3)nc(Nc3ccc([N+](=O)[O-])cc3)n2)n[nH]1 (2.5 µM) | 0 | 0 | 0 | 0 | 0 | 0 | 0 | 0 | 0 | 0 | 0 | 0 | 0 | 0 | 0 | 0 | 0 | 0 | 0 | 0
16 | O=C(Nc1cc(Cl)cc2c1[nH]c1cnccc12)c1cccnc1 (10 µM) | 0 | 0 | 0 | 0 | 0 | 0 | 0 | 0 | 0 | 0 | 0 | 0 | 0 | 0 | 0 | 0 | 0 | 0 | 0 | 0
17 | O=C1Nc2ccc(CN3C(=O)CSC3=O)cc2/C1=C/c1cc(CN2CCOCC2)c[nH]1 (10 µM) | 0 | 0 | 0 | 0 | 0 | 0 | 0 | 0 | 0 | 0 | 0 | 0 | 0 | 0 | 0 | 0 | 0 | 0 | 0 | 0
18 | C=CC(=O)Nc1ccc(C(=O)Nc2[nH]nc3c2CN(C(=O)N[C@H](CN(C)C)c2ccccc2)C3(C)C)cc1 (10 µM) | 2 | 1 | 1 | 3 | 3 | 1 | 2 | 3 | 2 | 0 | 2 | 3 | 0 | 2 | 4 | 2 | 1 | 0 | 0 | 0
19 | CCCCCC(=O)N[C@@H](Cc1ccc(O)cc1)C(=O)OC (10 µM) | 0 | 0 | 0 | 0 | 0 | 0 | 0 | 0 | 0 | 0 | 0 | 0 | 0 | 0 | 0 | 0 | 0 | 0 | 0 | 0
20 | C=CC(=O)Nc1cc(Nc2nccc(-c3cn(C)c4ccccc34)n2)c(OC)cc1OCCN(C)C [Rezivertinib] (2.5 µM) | 0 | 0 | 0 | 0 | 0 | 0 | 0 | 0 | 0 | 0 | 0 | 0 | 0 | 1 | 0 | 0 | 0 | 0 | 0 | 0
21 | O=c1cc(N2CCOCC2)oc2c(-c3ccc4c(c3)OCCO4)csc12 (2.5 µM) | 0 | 0 | 0 | 0 | 0 | 0 | 0 | 0 | 0 | 0 | 0 | 0 | 0 | 0 | 0 | 0 | 0 | 0 | 0 | 0
22 | Nc1nccc(-c2c(-c3ccc(F)cc3)ncn2C2CCCCC2)n1 (10 µM) | 0 | 0 | 0 | 0 | 0 | 0 | 0 | 0 | 0 | 0 | 0 | 0 | 0 | 0 | 0 | 0 | 0 | 0 | 0 | 0

Laid out differently: entries from further up.

| Row | Compound | number of time points [1] | number of time points [2] | number of time points [3] | number of time points [4] | number of time points [5] | number of time points [6] | number of time points [7] | number of time points [8] | number of time points [9] | number of time points [10] | number of time points [11] | number of time points [12] | number of time points [13] | number of time points [14] | number of time points [15] | number of time points [16] | number of time points [17] | number of time points [18] | number of time points [19] | number of time points [20] |
| --- | --- | --- | --- | --- | --- | --- | --- | --- | --- | --- | --- | --- | --- | --- | --- | --- | --- | --- | --- | --- | --- |
| 17 | O=C1Nc2ccc(CN3C(=O)CSC3=O)cc2/C1=C/c1cc(CN2CCOCC2)c[nH]1 (10 µM) | 0 | 0 | 0 | 0 | 0 | 0 | 0 | 0 | 0 | 0 | 0 | 0 | 0 | 0 | 0 | 0 | 0 | 0 | 0 | 0 |
| 18 | C=CC(=O)Nc1ccc(C(=O)Nc2[nH]nc3c2CN(C(=O)N[C@H](CN(C)C)c2ccccc2)C3(C)C)cc1 (10 µM) | 2 | 1 | 1 | 3 | 3 | 1 | 2 | 3 | 2 | 0 | 2 | 3 | 0 | 2 | 4 | 2 | 1 | 0 | 0 | 0 |
